PubChem BioAssay AID652243 – Drosophila RNAi Screening Center | 2013

Screen: 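Fly regulators of androgen-dependent reporter output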 (primary screen)
Cells: Drosophila S2R+ cells
Reagent: long dsRNA against Drosophila genes
Time to read-out: 72 h (48 h, then 24 h hormone)
Treatment: synthetic androgen R1881 at 10 nM for 24 h
Measured: 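Firefly light from an androgen-responsive reporter and Renilla control light per well, raw and unnormalised, for each of two replicates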
Direction: firefly reporter light: higher = more light from androgen-responsive reporter; Renilla control light: higher = more constitutive control signal (cell number, transfection)
Active means: 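Hit when the log firefly-to-Renilla ratio dropped or increased by a fixed fold versus the mean of GFP or LacZ controls across duplicate plates; lowering cut given as 1.5 and as 3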
Meaning of the calls: active = hit: reporter lowered or raised; inactive = no hit
The screen tested about 24,000 reagents; this is a random part of those that have a named target and a result. In the full data, 246 (1%) are marked active. 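Plates not normalised; calls are printed but the firefly/Renilla ratio behind them is not deposited; fold cut for lowering reported inconsistently.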 Raw values vary from plate to plate and are shown uncorrected. A plus sign joins genes that one reagent is predicted to hit. Not given: the amount of reagent.

gene knocked down	amplicon	firefly reporter light, replicate 1	firefly reporter light, replicate 2	Renilla control light, replicate 1	Renilla control light, replicate 2	outcome
CG7271 + term	DRSC30034	8.94e5	9.14e5	1.63e6	1.63e6	inactive
Kul (GeneID 43501)	DRSC15404	94511	1.23e5	1.60e6	2.06e6	inactive
Kul (GeneID 43501)	DRSC25888	2.76e5	3.87e5	9.76e5	9.07e5	inactive
nmdyn-D6 (GeneID 32396)	DRSC20355	6.08e5	4.87e5	3.21e6	2.92e6	inactive
nmdyn-D6 (GeneID 32396)	DRSC36815					inactive
CG8773 (GeneID 41634)	DRSC16444	47782	39330	2.96e5	4.32e5	inactive
CG8773 (GeneID 41634)	DRSC23903	7.18e5	8.23e5	8.50e5	8.25e5	inactive
CG3906 (GeneID 37721)	DRSC04431	6.79e5	7.57e5	1.26e6	1.29e6	inactive
CG3906 (GeneID 37721)	DRSC27931	5.35e5	5.90e5	9.14e5	7.67e5	inactive
alpha-Man-IIa (GeneID 41126)	DRSC15393	1.15e5	1.25e5	1.31e6	1.80e6	inactive
FASN2 (GeneID 117361)	DRSC00167	3.40e5	2.93e5	7.71e5	6.27e5	inactive
FASN2 (GeneID 117361)	DRSC00610	8.98e5	7.76e5	2.18e6	1.51e6	inactive
CG5968 (GeneID 34986)	DRSC02916	1.30e5	1.15e5	1.73e6	1.67e6	inactive
CAH7 (GeneID 41238)	DRSC15524	1.52e5	1.91e5	1.88e6	2.44e6	inactive
CG13983 (GeneID 33875)	DRSC02315	1.90e5	1.95e5	1.97e6	1.34e6	inactive
CG13983 (GeneID 33875)	DRSC28917	3.27e5	2.96e5	1.08e6	1.53e6	inactive
gem (GeneID 36064)	DRSC06093	6.29e5	5.29e5	1.05e6	7.88e5	inactive
gem (GeneID 36064)	DRSC06847	2.28e5	1.77e5	1.24e6	1.11e6	inactive
CG11655 (GeneID 32472)	DRSC19413	3.80e5	3.88e5	2.86e6	2.75e6	inactive
csul (GeneID 36809)	DRSC07599	52185	64579	9.61e5	9.61e5	inactive
Alp4 (GeneID 43671)	DRSC14116	2.30e5	2.54e5	2.43e6	3.04e6	inactive
Alp4 (GeneID 43671)	DRSC36712					inactive
CG40801 (retired record) (GeneID 5740548)	DRSC38667	5.71e5	5.43e5	1.36e6	1.67e6	inactive
CG5554 (GeneID 37775)	DRSC04513	2.55e5	2.88e5	1.12e6	8.10e5	inactive
CG5554 (GeneID 37775)	DRSC25559	6.45e5	9.82e5	8.45e5	9.77e5	inactive
CG16972 (GeneID 34715)	DRSC02550	6.21e5	8.57e5	1.53e6	2.26e6	inactive
Dlg5 (GeneID 34573)	DRSC02964	9.85e5	1.00e6	1.06e6	1.40e6	inactive
Dlg5 (GeneID 34573)	DRSC27257	2.97e5	2.26e5	5.94e5	6.04e5	inactive
CG7248 (GeneID 39356)	DRSC10788	3.11e5	2.35e5	3.76e6	2.83e6	inactive

3 entries already listed, sorted by “firefly reporter light, replicate 1”, high to low.
gene knocked down	amplicon	firefly reporter light, replicate 1	firefly reporter light, replicate 2	Renilla control light, replicate 1	Renilla control light, replicate 2	outcome
Dlg5 (GeneID 34573)	DRSC02964	9.85e5	1.00e6	1.06e6	1.40e6	inactive
CG5554 (GeneID 37775)	DRSC25559	6.45e5	9.82e5	8.45e5	9.77e5	inactive
CG16972 (GeneID 34715)	DRSC02550	6.21e5	8.57e5	1.53e6	2.26e6	inactive

Additional reagents:
gene knocked down	amplicon	firefly reporter light, replicate 1	firefly reporter light, replicate 2	Renilla control light, replicate 1	Renilla control light, replicate 2	outcome
cno (GeneID 40620)	DRSC12054	1.73e5	83463	2.57e5	2.53e5	inactive
cno (GeneID 40620)	DRSC22980	1.04e6	1.03e6	1.22e6	9.46e5	inactive
cno (GeneID 40620)	DRSC25770	1.85e5	2.46e5	9.62e5	6.85e5	inactive
cno (GeneID 40620)	DRSC28027	2.95e5	1.98e5	8.43e5	8.26e5	inactive
CG11470 (GeneID 43480)	DRSC14313	1.64e5	1.79e5	2.18e6	2.03e6	inactive
sing (GeneID 32644)	DRSC19530	6.01e5	6.49e5	2.89e6	2.91e6	inactive
veli (GeneID 43003)	DRSC16276	1.70e5	2.44e5	1.76e6	2.53e6	inactive
veli (GeneID 43003)	DRSC27872	7.18e5	4.12e5	2.68e6	1.48e6	inactive
CG14974 (GeneID 50167)	DRSC08433	1.38e5	2.03e5	1.45e6	2.09e6	inactive
Akr1B (GeneID 39304)	DRSC10581	1.07e6	1.10e6	1.15e6	1.71e6	inactive
Nha1 (GeneID 33961)	DRSC02109	6.95e5	1.02e6	1.68e6	1.70e6	inactive
CG16986 (GeneID 38325)	DRSC08502	1.69e5	1.11e5	1.66e6	1.52e6	inactive
CG34184 (GeneID 5740423)	DRSC38644	1.24e6	8.31e5	2.03e6	1.71e6	inactive
CG16758 (GeneID 38315)	DRSC07984	1.43e5	1.73e5	3.73e5	4.50e5	inactive
CG16758 (GeneID 38315)	DRSC08492	1.01e6	8.63e5	2.10e6	2.27e6	inactive
CG16758 (GeneID 38315)	DRSC28475	4.93e5	9.11e5	9.42e5	1.38e6	inactive
Nepl14 (GeneID 42700)	DRSC15631	1.51e5	1.71e5	2.16e6	2.11e6	inactive
CG18179 (GeneID 39124)	DRSC10303	1.26e5	1.62e5	1.92e6	1.69e6	inactive
CG18179 (GeneID 39124)	DRSC25528	7.15e5	5.80e5	8.04e5	1.08e6	inactive
Mct1 (GeneID 31198)	DRSC18681	1.93e5	2.55e5	2.46e6	2.71e6	inactive
Mct1 (GeneID 31198)	DRSC29006	5.08e5	5.59e5	1.33e6	1.10e6	inactive
Alp11 (GeneID 32496)	DRSC20080	3.37e5	2.48e5	4.24e6	4.18e6	inactive
Alp11 (GeneID 32496)	DRSC36816					inactive
CG17159 + CG17162	DRSC20899	2.72e5	2.73e5	5.08e5	4.61e5	inactive
CG17159 + CG17162	DRSC20900	1.40e5	1.70e5	2.80e5	2.80e5	inactive
Nepl8 (GeneID 34983)	DRSC02759	1.84e5	1.01e5	2.08e6	1.33e6	inactive
pths (GeneID 35379)	DRSC03171	79650	79579	9.75e5	8.61e5	inactive
CG15128 (GeneID 37263)	DRSC06550	52578	88396	9.32e5	1.26e6	inactive
snRNA:U1:82Eb (GeneID 3771770)	DRSC37890	7.12e5	5.96e5	1.44e6	1.42e6	inactive
